In patent US11285147B2, “Neuroprotective agents for treatment of neurodegenerative diseases” (WAYNE STATE UNIVERSITY, priority 2018, dated 2022):
At least one structure is not confirmed: it was looked up by name or label, or the drawing left a doubt.

Chains of the proteins cited; added tags and fusions are not shown. Residues count along the entry.
UniProt P05067, 672-713 limits assumed: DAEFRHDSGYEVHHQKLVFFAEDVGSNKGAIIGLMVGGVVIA

Columns and labels:
Type in all cases: biochemical
αSN (alpha synuclein) = αSN (alpha synuclein) (Homo sapiens, UniProt P37840); assay: Inhibition of αSN fibrillization, ThT fluorescence assay; conditions: for ThT activity of αSN in the presence of compound: co-incubation with αSN for 6 days, day 6, compared to αSN alone
Procedure: (§1) FIGS. 2A-B. (A) Inhibition of aSN fibrillization by D-687 and D-688. The drugs were incubated with aSN over a period of six days and the fibrilization was measured by ThT fluorescence assay. Data Values shown are means±SEMs of three independent experiments. (B) PC12 cells were treated with 10 μM prefabricated aSN aggregates formed in presence of drugs collected at day 0 and day 6. Values shown are means±SEMs of three independent experiments performed in 4-6 replicates. One way ANOVA analysis followed by Tukey's Multiple Comparison post hoc test were performed. (*p<0.01 compared to the control).
We assessed the ability of our compounds, D-687 and D-688, to alter aggregation and cytotoxicity after co-incubating αSN with these drugs for 6 days followed by evaluation of ThT fluorescence activity and cell viability experiment with the PC12 cells. […] In order to maintain identical condition, cellular viability was determined by using samples from various experiments diluted to maintain a final concentration of 10 μM of αSN and 20 μM of drugs.
as §1, with “FIG. 2 provides (A)” for “FIGS. 2A-B. (A)”, “prefabricated αSN” for “prefabricated aSN”

Aβ1-42 peptide = target: T1, Aβ1-42 peptide (Homo sapiens, UniProt P05067); assay: Inhibition of Aβ1-42 aggregation, ThT fluorescence; conditions: Aβ1-42 10 μM, test compounds 20 μM, 24 h
T1 construct: disaggregation activity of Aβ1-42 peptide
Procedure: (§2) FIGS. 3A and 3B. Inhibition and dissociation of Aβ1-42 oligomer formation by: a) ThT fluorescence of Aβ1-42 (10 μM) with or without incubation with test compounds (20 μM) for 24 h. The ThT fluorescence of Aβ1-42 at 0 h was taken as 100%. b) Aβ1-42 fibrils (10 μM) were incubated with test compounds (20 μM) for a period of 24 h. The ThT fluorescence of Aβ1-42 aggregates at 0 h was considered as 100%
as §2, with “3B show inhibition” for “3B. Inhibition”
(§3) Similar to the effect of the drugs on α-syn, interaction of compounds with Aβ1-42 peptide clearly indicated a significant effect in inhibiting aggregation in a time dependent manner as indicated by decrease in ThT activity (FIG. 3a). Similarly, test compounds were able to decrease ThT activity of preformed Aβ aggregates in a time dependent manner, reflecting its effect in disrupting structure of aggregates (FIG. 3b). On the other hand, incubation of aggregates itself led to a gradual increase in ThT activity (FIG. 3b).

Aβ1-42 fibrils = target: T2, Aβ1-42 fibrils (Homo sapiens, UniProt P05067); assay: Dissociation of preformed Aβ1-42 aggregates, ThT fluorescence; conditions: Aβ1-42 fibrils 10 μM, test compounds 20 μM, 24 h
T2 construct: disaggregation activity of Aβ1-42 peptide
Procedure: as §2
as §2, with “3B show inhibition” for “3B. Inhibition”
as §3

| SMILES | ThT activity of αSN in the presence of compound (αSN (alpha synuclein)) | Inhibition of aggregation of aSN protein (overall conclusion) (αSN (alpha synuclein)) | Inhibition of aggregation of Aβ1-42 peptide (Aβ1-42 peptide) | Disaggregation of preformed Aβ1-42 aggregates (Aβ1-42 fibrils) |
| --- | --- | --- | --- | --- |
| CC(C)N(CCN1CCN(c2ccc(-c3ccc(O)c(O)c3)cc2)CC1)C(C)C [Compound D-687, 4′-[4-(2-Diisopropylamino-ethyl)-piperazin-1-yl]-biphenyl-3,4-diol] | total inhibition | – | – | – |
| Oc1ccc(-c2ccc(N3CCN(CCNCc4ccc(F)cc4)CC3)cc2)cc1O [Compound D-688, 4′-{4-[2-(4-Fluoro-benzylamino)-ethyl]-piperazin-1-yl}-biphenyl-3,4-diol] | total inhibition | potently inhibited aggregation | potently inhibited aggregation | disaggregate |
